## Library screening results

Amino acid sequences for entries named in this document (tags omitted).
UniProt E9BF75, entry or part of it: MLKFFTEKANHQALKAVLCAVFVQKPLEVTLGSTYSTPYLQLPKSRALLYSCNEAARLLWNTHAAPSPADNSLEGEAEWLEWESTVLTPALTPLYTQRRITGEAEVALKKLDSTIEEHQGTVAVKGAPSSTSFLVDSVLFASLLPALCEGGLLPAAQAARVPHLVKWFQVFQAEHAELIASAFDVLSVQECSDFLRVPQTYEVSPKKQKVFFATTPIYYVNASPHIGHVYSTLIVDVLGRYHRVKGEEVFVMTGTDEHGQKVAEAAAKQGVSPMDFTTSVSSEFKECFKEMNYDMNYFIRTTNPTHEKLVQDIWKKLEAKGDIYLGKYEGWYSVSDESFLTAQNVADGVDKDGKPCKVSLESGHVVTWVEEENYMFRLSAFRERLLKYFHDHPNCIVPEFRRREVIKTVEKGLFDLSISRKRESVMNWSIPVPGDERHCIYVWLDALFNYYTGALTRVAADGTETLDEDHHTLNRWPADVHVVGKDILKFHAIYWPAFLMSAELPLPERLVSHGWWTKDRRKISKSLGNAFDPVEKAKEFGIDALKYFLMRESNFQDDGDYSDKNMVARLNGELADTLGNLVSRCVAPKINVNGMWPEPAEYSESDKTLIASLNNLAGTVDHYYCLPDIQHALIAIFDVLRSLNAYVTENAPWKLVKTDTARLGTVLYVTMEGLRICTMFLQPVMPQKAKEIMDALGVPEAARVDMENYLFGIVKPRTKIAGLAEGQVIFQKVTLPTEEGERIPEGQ

From ChEMBL document CHEMBL3988442, “University of Dundee, Small-Polar-MMV Screening Library” (2021).

Results are percentages, as filed.
The controls that fix the scale are not given in the record; negative values are as filed.
Compounds were drawn at random from those tested, without regard to their results.

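Primary screen of methionyl-tRNA synthetase; the read-out is not stated. Target: Methionyl-tRNA synthetase (putative), Leishmania donovani (UniProt E9BF75). The test concentration is not given. Values are per cent inhibition. About 68,000 compounds were tested under these conditions; 0.035% (about 24) showed 50% or more at least once.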

compound,inhibition
O=C(C1CCC1)N1CCN(Cc2cccnc2)[C@H]2CS(=O)(=O)C[C@H]21,12.37
COc1ncc(NS(=O)(=O)c2ccc(OC)c(C)c2)c(OC)n1,-6.832
O=C(c1ccccn1)N1CCC(c2nccn2Cc2ccncc2)CC1,11.37
CC(C(=O)Nc1ccccn1)n1ccc(C(F)(F)F)n1 (centres unmarked),19.26
Cc1cnc(C(C)(C)NC(=O)NCc2ccon2)s1,19.06
Cc1noc(C)c1CN1CC[C@H]2OCC[C@@H](C(=O)N3CCCO3)[C@H]2C1,1.481
Cc1cnn(CC2CCCN2C(=O)c2cnc3n[nH]c(C)c3c2)c1 (centres unmarked),9.028
COCC(C)NC(=O)CN1CCCC1 (centres unmarked),12.72
O=C1CC(N(C(=O)COc2ccc(F)cc2F)C2CC2)C(=O)N1 (centres unmarked),16.51
CCN(C)C(=O)c1ccnn1-c1ccc2ccccn12,3.986
CNC(=O)c1c(C)cccc1NCc1nnc(C2CC2)o1,16.03
Cc1cc(C)n2nc(CC(=O)N3CC[C@H]4NCCC[C@]4(CO)C3)nc2n1,6.25
CCc1cnc(N2CCCC(CCC(N)=O)C2)nc1 (centres unmarked),5.079
CC(C)C(NC(=O)c1ccc(=O)[nH]c1)c1nnc2n1CCNCC2 (centres unmarked),4.57
COc1cccc(N2C(=O)CC3(CCNCC3)C2=O)c1,10.08
CN(Cc1cccc(F)c1)C1CCN(CCc2ccccn2)CC1,2.222
Cc1c(S(=O)(=O)NCC(C)C)cnn1C,17.85
CS(=O)(=O)C1(CNCc2cccc(-n3cccn3)c2)CCOCC1,-3.107
N#Cc1ccc(N2CCCC(CO)(CCOc3ccccc3)C2)nc1 (centres unmarked),4.682
COc1ccc(N(C)C(=O)c2cccc(S(C)(=O)=O)c2)cn1,7.246
CCC(CNC(C)=O)(OC)c1ccccc1 (centres unmarked),9.353
COc1ccccc1NC(=O)N1CCCC1c1ccco1 (centres unmarked),10.59
N#Cc1cn(CCCN2CCc3ccccc3C2)c(=O)[nH]c1=O,11.46
CCN(CC)CCCC(C)NC(=O)c1cccnc1-n1cccn1 (centres unmarked),9.966
Cc1occc1CN(C)Cc1nc2c(cnn2C)c(=O)[nH]1,8.355
Cc1noc(C)c1CN1CCC2(CC1)C(c1ccccc1)CC(=O)N2C (centres unmarked),10.85
CSc1nc(C2CC2)nc(C)c1C(=O)NCc1ccco1,4.861
CCOC(=O)[C@H]1[C@@H](O)C(=O)N(C)C12CCN(C(=O)c1ccccc1)CC2,11.62
COc1c(CNC(c2cccc(F)c2)c2nccn2C)c(C)nn1C (centres unmarked),4.372
O=C(Nc1cccnc1-n1cc(Br)cn1)C1CCCC1,8.182
Cn1cncc1-c1nnc([C@H]2CCN(CC(C)(C)C)C2)o1,1.504
CC(C)CN1CCCC1c1ccc(C(=O)Nc2cccnc2)s1 (centres unmarked),14.17
CCOCC1CN(C(=O)Cc2ccccn2)Cc2cnn(CC)c21 (centres unmarked),-3.333
O=C(Cc1ccc2c(c1)OCCO2)N1CCN(c2cnccn2)CC1,26.82
CC1CCCN(C(=O)c2cccc(CS(C)(=O)=O)c2)C1 (centres unmarked),10.43
CC(CC(=O)NCCS(N)(=O)=O)C1CCCCC1 (centres unmarked),14.36
CC1=N[C@@]2(CC[C@@H]3CN(S(=O)(=O)C4CC4)C[C@@H]32)C(=O)N1CC(C)C,2.857
Cc1cnc(-c2nc(C3CCCN(Cc4cccs4)C3)no2)cn1 (centres unmarked),8.723
Cc1cnn(CCC(=O)N2CCCC(c3ccn[nH]3)C2)c1 (centres unmarked),16.26
CC(=O)N1CCCC(C(=O)N2CCC(=Cc3cccc(F)c3)CC2)C1 (centres unmarked),5.155
CNC1CCCN(Cc2noc(C3CC3)n2)C1 (centres unmarked),13.41
Cc1ccc(C(=O)N2C[C@H]3CCC[C@@]3(COc3ccccn3)C2)nc1,6.536
Cc1ccsc1C1CC(=O)Nc2c1cnn2C(C)C (centres unmarked),14.73
Cc1nc(CN(C)C2CCN(CCC(=O)N3CCOCC3)C2)no1 (centres unmarked),8.659
Cc1noc([C@@H]2CCO[C@@H]3CCN(Cc4nccs4)C[C@@H]32)n1,-0.6667
CC(=O)NC1CC(C)(C)Cc2c1cnn2-c1cccc(F)c1 (centres unmarked),10.27
O=C(c1ccsc1)N1CCO[C@@H]2CN(Cc3nccs3)C[C@@H]2C1,15.58
Cc1ccccc1-n1c(C)cc(=O)[nH]c1=O,6.977
NC(=O)C1(CCCc2ccccn2)CCCN(CCO)C1 (centres unmarked),16.38
Cn1ccc(NC(=O)CN2C[C@H]3CC[C@@H]2CN(S(C)(=O)=O)C3)n1,10.56
c1ncc(-c2cn(CCSc3cnn[nH]3)nn2)cn1,13.24
CCS(=O)(=O)N1CCCn2c(nc(CN3CCCC3)cc2=O)C1,5.495
O=S(=O)(NCC1COc2ccccc2C1)N1CCCC1 (centres unmarked),14.99
Cc1ncc(CC(=O)N2CCCC(COc3ccccc3F)C2)c(=O)[nH]1 (centres unmarked),11.64
Fc1ccc2c(c1)C1(CCNCC1)CC2NC1CC1 (centres unmarked),7.273
CN(Cc1cccnc1)[C@@H]1CN(c2ccccn2)[C@@H]2CCCO[C@H]12,9.589
CCc1cc(NC(=O)c2cccc(OCC(F)(F)F)n2)[nH]n1,11.28
CCN(CC)CCNC(=O)c1cnc(C(C)(C)C)s1,11.81
Cc1nc(-c2c(-c3ccccc3)ncn2[C@H]2C[C@@H](C(=O)O)N(C)C2)co1,11.78
Cc1ccc(C)c(S(=O)(=O)CCNC2CCc3ncnn3C2)c1 (centres unmarked),19.67
CSCC(C)(O)CNc1ccccn1 (centres unmarked),12.78

For reference, 5 entries once more:

* Cc1noc(C)c1CN1CCC2(CC1)C(c1ccccc1)CC(=O)N2C (centres unmarked) : 10.85%
* CCN(C)C(=O)c1ccnn1-c1ccc2ccccn12 : 3.986%
* CC(=O)NC1CC(C)(C)Cc2c1cnn2-c1cccc(F)c1 (centres unmarked) : 10.27%
* CC(C)C(NC(=O)c1ccc(=O)[nH]c1)c1nnc2n1CCNCC2 (centres unmarked) : 4.57%
* CN(Cc1cccnc1)[C@@H]1CN(c2ccccn2)[C@@H]2CCCO[C@H]12 : 9.589%